The other results are listed elsewhere or left out. Single values are uncertain, as repeats are few or missing.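 Imaging used 1,536-well plates; nuclei positive for cleaved PARP by antibody were divided by total DNA-stained nuclei to yield the apoptosis fraction. Doses for screening kept most cells viable, and cell lines differ markedly in resting and induced cleaved-PARP levels.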
Key:
Experiment in all cases: cleaved PARP positive nuclei fraction relative to DMSO control; melanoma cells; higher = more apoptosis
Conditions in all cases: library dose: low library concentration; 72 h
501Mel = test system: 501Mel
A101D = test system: A101D
A2058 = test system: A2058
C32 = test system: C32
CBRC008 = test system: CBRC008 (line from a melanoma biopsy)
CBRC014 = test system: CBRC014 (line from a melanoma biopsy)
CBRC016 = test system: CBRC016 (line from a melanoma biopsy)
CBRC017 = test system: CBRC017 (line from a melanoma biopsy)
COLO792 = test system: COLO792
COLO800 = test system: COLO800
COLO829 = test system: COLO829
G361 = test system: G361
IPC-298 = test system: IPC-298
IST-MEL1 = test system: IST-MEL1
LB2518-MEL = test system: LB2518-MEL
LOXIMVI = test system: LOXIMVI

SMILES	cleaved PARP positive nuclei fraction (501Mel)	cleaved PARP positive nuclei fraction (A101D)	cleaved PARP positive nuclei fraction (A2058)	cleaved PARP positive nuclei fraction (C32)	cleaved PARP positive nuclei fraction (CBRC008)	cleaved PARP positive nuclei fraction (CBRC014)	cleaved PARP positive nuclei fraction (CBRC016)	cleaved PARP positive nuclei fraction (CBRC017)	cleaved PARP positive nuclei fraction (COLO792)	cleaved PARP positive nuclei fraction (COLO800)	cleaved PARP positive nuclei fraction (COLO829)	cleaved PARP positive nuclei fraction (G361)	cleaved PARP positive nuclei fraction (IPC-298)	cleaved PARP positive nuclei fraction (IST-MEL1)	cleaved PARP positive nuclei fraction (LB2518-MEL)	cleaved PARP positive nuclei fraction (LOXIMVI)
Cc1ccc(Nc2nccc(N(C)c3ccc4c(C)n(C)nc4c3)n2)cc1S(N)(=O)=O [Pazopanib] + Cn1cc(/C=C2\C(=O)Nc3cccnc32)c2ccccc21 [GW441756] (first compound 0.4 µM, partner dose 0.4 µM)	64.3%	26.8%	141%	38.6%	195%	189%	60%	107%	71.9%	46.9%	71.2%	91.4%	53.4%	171%	36.4%	126%
CCCCCCCCCCCCCCCCCCOP(=O)([O-])OC1CC[N+](C)(C)CC1 [Perifosine] + COc1ccc(-c2ccc3c(N4CCOCC4)nc(N4C[C@@H](C)O[C@@H](C)C4)nc3n2)cc1CO [KU0063794] (first compound 0.4 µM, partner dose 0.02 µM)	160%	25.1%	84.5%	127%	116%	99%	52.7%	62.5%	137%	214%	39.9%	107%	51.9%	36.7%	140%	45.7%
O=C(/C=C/c1cccnc1)NCCCCC1CCN(C(=O)c2ccccc2)CC1 + COC(=O)c1sccc1S(=O)(=O)Nc1ccc(Nc2ccccc2)cc1OC [GSK0660] (first compound 0.01 µM, partner dose 1 µM)	81.5%	75.2%	105%	130%	1080%	132%	425%	381%	459%	351%	159%	4670%	264%	84%	198%	65.7%
Cc1cc(Nc2cc(N3CCN(C)CC3)nc(Sc3ccc(NC(=O)C4CC4)cc3)n2)n[nH]1 [Tozasertib] + O=S(=O)(c1ccccc1)N(CC(F)(F)F)c1ccc(C(O)(C(F)(F)F)C(F)(F)F)cc1 [T0901317] (first compound 0.006 µM, partner dose 1.4 µM)	167%	28.7%	76%	86.7%	105%	102%	29.1%	294%	61.8%	57.6%	117%	149%	66.6%	68.2%	48.2%	68%
COc1cc([C@@H]2c3cc4c(cc3[C@@H](O[C@@H]3O[C@@H]5CO[C@@H](C)O[C@H]5[C@H](O)[C@H]3O)[C@H]3COC(=O)[C@H]23)OCO4)cc(OC)c1O [etoposide] + N#Cc1c(O)c2c(-c3ccc(-c4ccccc4O)cc3)csc2[nH]c1=O [A769662] (first compound 0.02 µM, partner dose 2 µM)	145%	17.1%	204%	40.9%	81.6%	106%	45.6%	85.3%	123%	43.2%	97.5%	59.1%	121%	92%	88.3%	194%
CC[C@]1(O)C[C@H]2CN(CCc3c([nH]c4ccccc34)[C@@](C(=O)OC)(c3cc4c(cc3OC)N(C=O)[C@H]3[C@@](O)(C(=O)OC)[C@H](OC(C)=O)[C@]5(CC)C=CCN6CC[C@]43[C@@H]65)C2)C1 [vincristine] + COc1cc2ncnc(Nc3ccc(Oc4ccccc4)cc3)c2cc1OC [SrcI1] (first compound 0.0001 µM, partner dose 2 µM)	47.5%	52.2%	6680%	124%	198%	136%	81.2%	113%	48.6%	99.9%	318%	75.1%	95.1%	153%	64.7%	101%
CCCCCCCCCCCCCCCCCCOP(=O)([O-])OC1CC[N+](C)(C)CC1 [Perifosine] + c1cc(-c2cnn3cc(-c4ccc(OCCN5CCCCC5)cc4)cnc23)ccn1 [Dorsomorphin] (first compound 0.4 µM, partner dose 0.4 µM)	86.3%	20.6%	137%	170%	496%	547%	99.1%	91.4%	58.4%	86.6%	106%	279%	88.7%	152%	83.3%	203%
COc1cc([C@@H]2c3cc4c(cc3[C@@H](O[C@@H]3O[C@@H]5CO[C@@H](C)O[C@H]5[C@H](O)[C@H]3O)[C@H]3COC(=O)[C@H]23)OCO4)cc(OC)c1O [etoposide] + COc1cc(N2CCC(N3CCN(C)CC3)CC2)ccc1Nc1ncc(Cl)c(Nc2ccccc2S(=O)(=O)C(C)C)n1 [NVP-TAE684] (first compound 0.02 µM, partner dose 0.08 µM)	73.4%	52.6%	92.6%	84.8%	158%	104%	44%	727%	69%	241%	41.9%	43.6%	61.9%	66.3%	71.9%	126%
O=C(/C=C/c1cccnc1)NCCCCC1CCN(C(=O)c2ccccc2)CC1 + O=C1NC(=O)/C(=C/c2ccc(-c3ccc(F)cc3O)o2)S1 [AS252424] (first compound 0.01 µM, partner dose 1 µM)	33.5%	32.6%	68.1%	16.3%	1020%	193%	396%	208%	862%	328%	424%	4010%	468%	189%	541%	53.5%
N#CC[C@H](C1CCCC1)n1cc(-c2ncnc3[nH]ccc23)cn1 [ruxolitinib] + O=C1NC(=O)/C(=C/c2ccc(-c3ccc(F)cc3O)o2)S1 [AS252424] (first compound 1 µM, partner dose 1 µM)	168%	4.17%	373%	206%	108%	169%	88.8%	103%	47.3%	23.1%	76.3%	106%	97.5%	82.1%	45.3%	121%
N#CC[C@H](C1CCCC1)n1cc(-c2ncnc3[nH]ccc23)cn1 [ruxolitinib] + Oc1cc(-c2nc(-c3ccccc3)[nH]c2-c2ccncc2)ccc1Cl [L779450] (first compound 1 µM, partner dose 0.2 µM)	84.9%	22.5%	77.9%	76.1%	28.9%	98.7%	64.6%	80.6%	59.1%	67%	90.2%	127%	32.3%	121%	185%	178%
O=c1[nH]nc(Sc2ncc([N+](=O)[O-])s2)n1-c1ccc2c(c1)OCCO2 + COc1cc2ncnc(Nc3ccc(Oc4ccccc4)cc3)c2cc1OC [SrcI1] (first compound 0.2 µM, partner dose 2 µM)	69.6%	36.3%	45.3%	78.4%	104%	111%	49.7%	96.7%	95%	51.5%	122%	70%	47.1%	187%	157%	120%
Cc1cn(-c2cc(NC(=O)c3ccc(C)c(Nc4nccc(-c5cccnc5)n4)c3)cc(C(F)(F)F)c2)cn1 [nilotinib] + CCN(CC)CCCCNc1ncc2cc(-c3cc(OC)cc(OC)c3)c(NC(=O)NC(C)(C)C)nc2n1 [PD173074] (first compound 0.2 µM, partner dose 0.1 µM)	38.6%	47.1%	108%	361%	89.6%	79.8%	103%	70.3%	132%	137%	163%	178%	46.1%	78.5%	76.9%	242%
CCCCCCCCCCCCCCCCCCOP(=O)([O-])OC1CC[N+](C)(C)CC1 [Perifosine] + N#Cc1c(O)c2c(-c3ccc(-c4ccccc4O)cc3)csc2[nH]c1=O [A769662] (first compound 0.4 µM, partner dose 2 µM)	220%	8.92%	53.6%	38.6%	54.6%	82%	53.9%	98.9%	175%	127%	18.8%	68.9%	92.2%	94.1%	96.9%	88.9%
Cc1ccc(Nc2nccc(N(C)c3ccc4c(C)n(C)nc4c3)n2)cc1S(N)(=O)=O [Pazopanib] + O=c1cc(-c2cccc3c2Sc2ccccc2S3)oc(N2CCOCC2)c1 [KU55933] (first compound 0.4 µM, partner dose 1 µM)	47.8%	102%	197%	159%	42.3%	120%	85.5%	98.6%	93.7%	24.2%	46%	73.7%	118%	61.6%	110%	137%
Cc1ccc(Nc2nccc(N(C)c3ccc4c(C)n(C)nc4c3)n2)cc1S(N)(=O)=O [Pazopanib] + COc1cc2ncnc(Nc3ccc(Oc4ccccc4)cc3)c2cc1OC [SrcI1] (first compound 0.4 µM, partner dose 2 µM)	74.8%	21%	120%	161%	173%	101%	82.9%	79.5%	86.2%	32.9%	42.2%	200%	112%	116%	58.5%	217%
Cc1cn(-c2cc(NC(=O)c3ccc(C)c(Nc4nccc(-c5cccnc5)n4)c3)cc(C(F)(F)F)c2)cn1 [nilotinib] + c1cc(-c2cnn3cc(-c4ccc(OCCN5CCCCC5)cc4)cnc23)ccn1 [Dorsomorphin] (first compound 0.2 µM, partner dose 0.4 µM)	72.9%	14.1%	92%	116%	53.8%	110%	50.1%	88.4%	47.8%	87.4%	198%	34.4%	46.9%	28.6%	64%	198%
Cc1cn(-c2cc(NC(=O)c3ccc(C)c(Nc4nccc(-c5cccnc5)n4)c3)cc(C(F)(F)F)c2)cn1 [nilotinib] + COc1ccc(-c2ccc3c(N4CCOCC4)nc(N4C[C@@H](C)O[C@@H](C)C4)nc3n2)cc1CO [KU0063794] (first compound 0.2 µM, partner dose 0.02 µM)	149%	19.1%	87.2%	92.2%	57.2%	94.6%	33.8%	108%	34.2%	86.1%	93.3%	86.5%	120%	114%	122%	84.7%
Cc1cn(-c2cc(NC(=O)c3ccc(C)c(Nc4nccc(-c5cccnc5)n4)c3)cc(C(F)(F)F)c2)cn1 [nilotinib] + O=C(Nc1ccccc1)c1cc([N+](=O)[O-])ccc1Cl [GW9662] (first compound 0.2 µM, partner dose 2 µM)	76.9%	21.7%	72.5%	46.9%	73.7%	102%	67.4%	187%	147%	125%	123%	195%	74.3%	243%	255%	133%
CCCCCCCCCCCCCCCCCCOP(=O)([O-])OC1CC[N+](C)(C)CC1 [Perifosine] + CCCCCCCCCCCC1=C(O)C(=O)C=C(O)C1=O [Embelin] (first compound 0.4 µM, partner dose 1.2 µM)	197%	19.1%	95.4%	149%	85.8%	121%	16.3%	109%	172%	53.2%	60.7%	61.6%	87.9%	176%	73%	80.8%

Quoted from the listing for reference:
SMILES	cleaved PARP positive nuclei fraction (501Mel)	cleaved PARP positive nuclei fraction (A101D)	cleaved PARP positive nuclei fraction (A2058)	cleaved PARP positive nuclei fraction (C32)	cleaved PARP positive nuclei fraction (CBRC008)	cleaved PARP positive nuclei fraction (CBRC014)	cleaved PARP positive nuclei fraction (CBRC016)	cleaved PARP positive nuclei fraction (CBRC017)	cleaved PARP positive nuclei fraction (COLO792)	cleaved PARP positive nuclei fraction (COLO800)	cleaved PARP positive nuclei fraction (COLO829)	cleaved PARP positive nuclei fraction (G361)	cleaved PARP positive nuclei fraction (IPC-298)	cleaved PARP positive nuclei fraction (IST-MEL1)	cleaved PARP positive nuclei fraction (LB2518-MEL)	cleaved PARP positive nuclei fraction (LOXIMVI)
Cc1cn(-c2cc(NC(=O)c3ccc(C)c(Nc4nccc(-c5cccnc5)n4)c3)cc(C(F)(F)F)c2)cn1 [nilotinib] + CCN(CC)CCCCNc1ncc2cc(-c3cc(OC)cc(OC)c3)c(NC(=O)NC(C)(C)C)nc2n1 [PD173074] (first compound 0.2 µM, partner dose 0.1 µM)	38.6%	47.1%	108%	361%	89.6%	79.8%	103%	70.3%	132%	137%	163%	178%	46.1%	78.5%	76.9%	242%
CCCCCCCCCCCCCCCCCCOP(=O)([O-])OC1CC[N+](C)(C)CC1 [Perifosine] + N#Cc1c(O)c2c(-c3ccc(-c4ccccc4O)cc3)csc2[nH]c1=O [A769662] (first compound 0.4 µM, partner dose 2 µM)	220%	8.92%	53.6%	38.6%	54.6%	82%	53.9%	98.9%	175%	127%	18.8%	68.9%	92.2%	94.1%	96.9%	88.9%
Cc1ccc(Nc2nccc(N(C)c3ccc4c(C)n(C)nc4c3)n2)cc1S(N)(=O)=O [Pazopanib] + O=c1cc(-c2cccc3c2Sc2ccccc2S3)oc(N2CCOCC2)c1 [KU55933] (first compound 0.4 µM, partner dose 1 µM)	47.8%	102%	197%	159%	42.3%	120%	85.5%	98.6%	93.7%	24.2%	46%	73.7%	118%	61.6%	110%	137%
Cc1ccc(Nc2nccc(N(C)c3ccc4c(C)n(C)nc4c3)n2)cc1S(N)(=O)=O [Pazopanib] + COc1cc2ncnc(Nc3ccc(Oc4ccccc4)cc3)c2cc1OC [SrcI1] (first compound 0.4 µM, partner dose 2 µM)	74.8%	21%	120%	161%	173%	101%	82.9%	79.5%	86.2%	32.9%	42.2%	200%	112%	116%	58.5%	217%

Source: the supplement of paper PMC4604168 (melanoma cell lines)
